According to patent publication US20230287338A1 (MINERVA BIOTECHNOLOGIES, published 2023):
These are yes or no findings as the source states them, for the method shown. In cells and extracts the contact can be indirect. Some results given as binding are weak or reduced against the parent protein; the word gives no strength. For some assays here: Tags and fused reporters may be left off the sequences shown.

By UniProt entry, the sequences of proteins in these tests, tags left out. Residues count along the entry.
UniProt P15531, residues 2-152: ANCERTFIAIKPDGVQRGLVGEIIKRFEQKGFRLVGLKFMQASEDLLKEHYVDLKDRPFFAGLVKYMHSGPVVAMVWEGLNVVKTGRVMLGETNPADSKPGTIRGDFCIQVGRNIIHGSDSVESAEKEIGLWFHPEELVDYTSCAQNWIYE
UniProt Q9Y5B8: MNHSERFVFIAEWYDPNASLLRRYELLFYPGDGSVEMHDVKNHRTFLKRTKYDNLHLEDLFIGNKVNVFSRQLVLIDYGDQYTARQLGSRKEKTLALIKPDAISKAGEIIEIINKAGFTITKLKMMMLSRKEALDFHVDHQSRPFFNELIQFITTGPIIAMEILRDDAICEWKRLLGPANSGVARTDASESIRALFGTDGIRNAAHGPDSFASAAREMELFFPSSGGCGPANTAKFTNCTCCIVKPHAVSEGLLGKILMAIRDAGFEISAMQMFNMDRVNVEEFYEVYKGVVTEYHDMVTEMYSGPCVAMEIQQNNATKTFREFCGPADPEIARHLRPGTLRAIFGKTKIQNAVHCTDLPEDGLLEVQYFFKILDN

Columns and labels:
[1] = target: MUC1* (cleaved form of MUC1, MUC1* growth factor receptor), native (human) (UniProt P15941); assay: co-immunoprecipitation with Ab-5, Western blot
[2] = target: T1, histidine-tagged MUC1* extra cellular domain peptide (His-tagged PSMGFR sequence); assay: pull-down on NTA-Ni agarose beads from cell lysates, Western blot
T1 sequence (peptide): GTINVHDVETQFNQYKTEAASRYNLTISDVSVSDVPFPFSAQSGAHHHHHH

[3] = target: MUC1* (cleaved form of MUC1, MUC1* growth factor receptor), native (human) (UniProt P15941); assay: co-immunoprecipitation with Ab-5 from cell lysates, Western blot
[4] = target: T1, histidine-tagged MUC1* extra cellular domain peptide (His-tagged PSMGFR sequence); assay: pull-down assay, Western blot
[5] = target: T1, histidine-tagged MUC1* extra cellular domain peptide (His-tagged PSMGFR sequence); assay: pull-down assay
[6] = target: T1, histidine-tagged MUC1* extra cellular domain peptide (His-tagged PSMGFR sequence); assay: pull-down on NTA-Ni magnetic beads from cell lysates, Western blot
[7] = target: T1, histidine-tagged MUC1* extra cellular domain peptide (His-tagged PSMGFR sequence); assay: pull-down from BGO1v lysate on peptide beads, Western blot

Measured: binding

NME1 (NM23-H1), native, from human stem cell and cancer cell lysates (from UniProt P15531 2-152) (ligand)
binds: [1] | [2] | [3]

NME7 (NM23-H7), native, from human stem cell and cancer cell lysates (from UniProt Q9Y5B8 1-376) (ligand)
not listed: [1] | [3]
binds: all other assays above
